Experimental data published in US7179832B2, “Glycogen synthase kinase 3β inhibitor, composition and process for the preparation thereof” (Crystalgenomics, Inc., priority 2003, dated 2007).
The structures given here were assigned with low confidence; some may be wrong.

Sequences of proteins named here, by UniProt entry; tags and fusion partners are left off.
UniProt P49841, whole entry: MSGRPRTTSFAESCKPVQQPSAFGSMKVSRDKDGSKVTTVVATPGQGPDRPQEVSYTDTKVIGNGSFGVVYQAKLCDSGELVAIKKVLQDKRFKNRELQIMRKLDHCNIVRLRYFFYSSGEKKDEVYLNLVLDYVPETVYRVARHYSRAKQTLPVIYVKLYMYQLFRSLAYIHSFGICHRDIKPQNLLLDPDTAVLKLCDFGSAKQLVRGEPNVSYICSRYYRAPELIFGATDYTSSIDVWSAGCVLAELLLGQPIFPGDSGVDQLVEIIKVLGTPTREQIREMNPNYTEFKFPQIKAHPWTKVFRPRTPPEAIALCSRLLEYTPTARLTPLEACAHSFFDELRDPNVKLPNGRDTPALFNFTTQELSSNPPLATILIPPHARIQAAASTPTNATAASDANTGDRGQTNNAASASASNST

Target: GSK-3β (Homo sapiens, UniProt P49841)
Assay: Assay for GSK-3β inhibiting activity (32P-ATP, phospho-CREB peptide substrate, filter paper, CPM)
Details: 100 nM GSK-3β protein, 100 μM phospho-CREB peptide, 100 μM ATP, 30° C. for 1 hour

| Structure (SMILES) | IC50 |
| --- | --- |
| CCN(CC)C1CCN(c2ccc(CCNC(=O)c3ccc(O)c4[nH]c(-c5ccc(F)cc5)nc34)cc2)C1 (stereo not shown) | > 1 µM |
| CC(=O)Nc1ccc(NCCNC(=O)c2ccc(O)c3[nH]c(-c4ccc(F)cc4)nc23)nc1 | > 1 µM |
| CC(=O)Nc1ccc(NCCNC(=O)c2ccc(O)c3[nH]c(-c4ccc(F)cc4Cl)nc23)nc1 | > 1 µM |
| Nc1ccc(NCCNC(=O)c2ccc(O)c3[nH]c(-c4ccc(Cl)cc4)nc23)nc1 | > 1 µM |
| CC(=O)Nc1ccc(NCCNC(=O)c2ccc(O)c3[nH]c(-c4ccc(Cl)cc4)nc23)nc1 | > 5 µM |

Now those with a lower IC50, led by results:

| IC50 | Structure (SMILES) |
| --- | --- |
| 0.4 µM | O=C(NCCNc1ccc([N+](=O)[O-])cn1)c1ccc(O)c2[nH]c(-c3ccc(F)cc3Cl)nc12 |
| 0.2 µM | O=C(NCCNc1ccc([N+](=O)[O-])cn1)c1ccc(O)c2[nH]c(-c3ccc(F)cc3)nc12 |
